These are yes or no findings as the source states them, for the method shown. Some binding calls cover weakened binding; strength is not graded here.

By UniProt entry, the sequences of proteins in these tests, tags left out.
UniProt P02699: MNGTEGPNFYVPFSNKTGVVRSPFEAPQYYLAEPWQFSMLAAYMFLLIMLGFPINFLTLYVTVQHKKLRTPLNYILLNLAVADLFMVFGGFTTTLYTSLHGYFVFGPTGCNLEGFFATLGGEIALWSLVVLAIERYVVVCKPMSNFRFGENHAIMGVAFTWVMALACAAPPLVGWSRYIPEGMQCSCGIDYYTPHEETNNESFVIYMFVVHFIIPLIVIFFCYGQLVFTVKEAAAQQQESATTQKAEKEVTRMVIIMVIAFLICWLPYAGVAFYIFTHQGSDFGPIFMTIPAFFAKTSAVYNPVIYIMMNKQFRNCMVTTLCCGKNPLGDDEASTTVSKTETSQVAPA

The target of assay [1] is T1, human thrombin receptor (PAR1) (human, UniProt P25116 42-425).
T1 sequence (looked up): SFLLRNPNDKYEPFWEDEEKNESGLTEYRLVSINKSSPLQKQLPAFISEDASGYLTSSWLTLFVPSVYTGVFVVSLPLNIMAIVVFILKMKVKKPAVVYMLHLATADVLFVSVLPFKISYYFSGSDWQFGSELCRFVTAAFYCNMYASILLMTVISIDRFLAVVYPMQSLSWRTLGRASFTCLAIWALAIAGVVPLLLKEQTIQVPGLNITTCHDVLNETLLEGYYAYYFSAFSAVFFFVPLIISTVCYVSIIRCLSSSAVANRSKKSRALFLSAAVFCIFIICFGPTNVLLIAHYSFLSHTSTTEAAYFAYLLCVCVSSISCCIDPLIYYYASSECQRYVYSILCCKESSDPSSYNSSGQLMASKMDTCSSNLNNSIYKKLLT
The assay can be described thus: panning, G11 library, CHO expressed PAR1.

The target in assay [2] is T1, human thrombin receptor (PAR1). The assay is described as follows: panning, LacI Gq library on CHO membranes with PAR1; competitor ….
The target is the same in assay [3]. The assay can be described thus: panning, Gt library on CHO-expressed PAR1; competitor ….
Assay [4] shares this target. The assay is described as follows: panning, LacI Gq library on purified PAR1 in lipid vesicles; competitor ….
Assay [5] shares this target. The assay is described as follows: panning, G11 library, Sf9 expressed PAR1.
Assay [6] has the same target. The assay is described as follows: panning, LacI Gq library on Sf9 membranes with PAR1; competitor ….
For assay [7] the target is unchanged. The assay can be described thus: panning, G11 library, recombinant reconstituted PAR1.
The target is the same in assay [8]. The assay is described as follows: panning, G13 library on CHO-expressed PAR1; competitor ….
The target is the same in assay [9]. The assay can be described thus: panning, G12 library on CHO-expressed PAR1; competitor ….
Assay [10] deals with light-activated bovine rhodopsin (metarhodopsin II) in rod outer segment membranes (bovine) (UniProt P02699). The assay is described as follows: panning, LacI Gt library on immobilized ROS membranes.

With “LacI fusion clone C5-10 (Gq/G11 library) (from UniProt P03023 1-360)”, the binding entry in [1] and in assay [2] was “binds” throughout.
For “LacI fusion … (Gt library, panned on PAR1) (from UniProt P03023 1-360)”, the binding entry in assay [3] is on record as “binds”.
For “LacI fusion clone R3-46 (Gq/G11 library) (from UniProt P03023 1-360)”, in assay [4], the binding result is recorded as “binds”.
For the substance “LacI fusion clone S2-36 (Gq/G11 library) (from UniProt P03023 1-360)”, the binding result in [5] and in assay [6] was “binds” in each case.
With “LacI fusion clone S1-23 (Gq/G11 library) (from UniProt P03023 1-360)”, the binding result in [5] and in assay [6] was “binds” throughout.
For “LacI fusion clone R3-37 (Gq/G11 library) (from UniProt P03023 1-360)”, the binding result in [1], in [7] and in [4] was “binds” throughout.
On to “LacI fusion clone R2-16 (Gq/G11 library) (from UniProt P03023 1-360)”, for which the binding entry in assay [1], in assay [7] and in assay [4] was “binds” in each case.
On to “LacI fusion clone S2-26 (Gq/G11 library) (from UniProt P03023 1-360)”, for which the binding entry in assay [5] and in assay [6] was “binds” throughout.
Regarding “LacI fusion clone R2-20 (Gq/G11 library) (from UniProt P03023 1-360)”, the binding result in assay [1], in assay [7] and in [4] was “binds” in each case.
For “LacI fusion clone R3-38 (Gq/G11 library) (from UniProt P03023 1-360)”, the binding result in [7] and in assay [4] was “binds” throughout.
Regarding “LacI fusion clone S3-8 (Gq/G11 library) (from UniProt P03023 1-360)”, the binding entry in [5] and in [6] was “binds” throughout.
Regarding “LacI fusion clone C7-10 (Gq/G11 library) (from UniProt P03023 1-360)”, the binding result in assay [1] and in [2] was “binds” throughout.
In the case of “LacI fusion clone S3-6 (Gq/G11 library) (from UniProt P03023 1-360)”, the binding entry in assay [5] and in assay [6] was “binds” each time.
As to “LacI fusion clone S1-18 (Gq/G11 library) (from UniProt P03023 1-360)”, the binding entry in assay [5] and in assay [6] was “binds” in each case.
On to “LacI fusion … (G11 library) (from UniProt P03023 1-360)”, for which the binding result in assay [1], in [5] and in [7] was “binds” each time.
On to “LacI fusion clone C4-19 (Gq/G11 library) (from UniProt P03023 1-360)”, for which the binding result in assay [1] and in assay [2] was “binds” each time.
On to “LacI fusion clone R2-21 (Gq/G11 library) (from UniProt P03023 1-360)”, for which the binding entry in assay [1], in assay [7] and in [4] was “binds” in each case.
Turning to “LacI fusion clone R2-18 (Gq/G11 library) (from UniProt P03023 1-360)”, the binding entry in assay [1], in assay [7] and in assay [4] was “binds” throughout.
Regarding “LacI fusion clone C7-14 (Gq/G11 library) (from UniProt P03023 1-360)”, the binding result in assay [1] and in assay [2] was “binds” each time.
Turning to “LacI fusion clone C4-16 (Gq/G11 library) (from UniProt P03023 1-360)”, the binding result in [1] and in [2] was “binds” each time.
Regarding “LacI fusion clone C5-12 (Gq/G11 library) (from UniProt P03023 1-360)”, the binding entry in assay [1] and in assay [2] was “binds” each time.
With “LacI fusion clone C4-5 (Gq/G11 library) (from UniProt P03023 1-360)”, the binding entry in assay [1] and in assay [2] was “binds” throughout.
Consider “LacI fusion clone S1-13 (Gq/G11 library) (from UniProt P03023 1-360)”, for which the binding entry in assay [5] and in assay [6] was “binds” throughout.
For “LacI fusion … (G13 library, panned on PAR1) (from UniProt P03023 1-360)”, the binding entry in assay [8] was “binds”.
“LacI fusion clone S2-30 (Gq/G11 library) (from UniProt P03023 1-360)”: the binding result in assay [5] and in [6] was “binds” each time.
As to “LacI fusion clone C7-13 (Gq/G11 library) (from UniProt P03023 1-360)”, the binding result in assay [1] and in [2] was “binds” in each case.
“LacI fusion … (G12 library, panned on PAR1) (from UniProt P03023 1-360)”: in assay [9], the binding entry is listed as “binds”.
On to “LacI fusion clone S3-10 (Gq/G11 library) (from UniProt P03023 1-360)”, for which the binding result in assay [5] and in assay [6] was “binds” throughout.
As for “LacI fusion clone 9 (Gt library) (from UniProt P03023 1-360)”, the binding entry in [10] is “binds”.
As for “LacI fusion clone 10 (Gt library) (from UniProt P03023 1-360)”, the binding result in assay [10] is reported as “binds”.
“LacI fusion clone R2-17 (Gq/G11 library) (from UniProt P03023 1-360)”: the binding entry in assay [1], in assay [7] and in assay [4] was “binds” throughout.
“LacI fusion clone S3-15 (Gq/G11 library) (from UniProt P03023 1-360)”: the binding result in [5] and in assay [6] was “binds” in each case.
Take “LacI fusion clone C7-3 (Gq/G11 library) (from UniProt P03023 1-360)”: the binding result in assay [1] and in [2] was “binds” throughout.
Regarding “LacI fusion clone R3-44 (Gq/G11 library) (from UniProt P03023 1-360)”, the binding result in assay [1], in assay [7] and in assay [4] was “binds” each time.

The values above are taken from patent publication US20070077597A1 (published 2007).
